Results reported in US11311625B2 (priority 2015, dated 2022).
Some peptides are written in HELM: one residue between dots, names in brackets for other building blocks, links after the first $.

Assay: general procedure: Fmoc solid-phase peptide synthesis; Rink amide MBHA resin (substitution level 0.56 mmol/g); PyBroP/DIEA in NMP
Conditions: whole synthesis, scale of the general procedure 1 g resin (0.56 mmol/g)

Substance	final LC-MS purity [%]	isolated yield [%]
PEPTIDE1{[ABT751-CO].[GABA].[dF].C.F.W.[dW].K.T.F.[GlyS2].[am]}$PEPTIDE1,PEPTIDE1,4:R3-11:R3$$$V2.0	93	41
PEPTIDE1{[AMGlut].[GABA].[dF].C.F.W.[dW].K.T.F.[GlyS2].[am]}$PEPTIDE1,PEPTIDE1,4:R3-11:R3$$$V2.0	96	48
PEPTIDE1{[COMB-CO].[GABA].[dF].C.F.W.[dW].K.T.F.[GlyS2].[am]}$PEPTIDE1,PEPTIDE1,4:R3-11:R3$$$V2.0	95	38
PEPTIDE1{[CPT-CO].[GABA].[dF].C.F.W.[dW].K.T.F.[GlyS2].[am]}$PEPTIDE1,PEPTIDE1,4:R3-11:R3$$$V2.0	95	42
